Assay results as given in PubChem BioAssay AID2551 (National Center for Advancing Translational Sciences (NCATS), 2010).
Several values for one entry are separate records, joined by “and”; a condition that tells them apart may be missing. Identical values can stand only once. Among all 310,000 compounds or so, about 17,000 (5.5%) were called active. The inconclusive results got no clear call from the source; some entries with a clear call stand among them for comparison. Calls come from the whole dose curve; as a rule, active = well fitted inhibition curve with a large enough effect; inconclusive = small, poorly fitted or top-dose-only effect, or effect the other way; inactive = no such curve, though single readings can be large or run the other way. Potencies of inconclusive entries are doubtful fits and often do not repeat.

By UniProt entry, the sequences of proteins in these tests, tags left out. Where a name states a change or a piece, a line headed by the entry shows the natural chain unless it says otherwise.
UniProt P51450: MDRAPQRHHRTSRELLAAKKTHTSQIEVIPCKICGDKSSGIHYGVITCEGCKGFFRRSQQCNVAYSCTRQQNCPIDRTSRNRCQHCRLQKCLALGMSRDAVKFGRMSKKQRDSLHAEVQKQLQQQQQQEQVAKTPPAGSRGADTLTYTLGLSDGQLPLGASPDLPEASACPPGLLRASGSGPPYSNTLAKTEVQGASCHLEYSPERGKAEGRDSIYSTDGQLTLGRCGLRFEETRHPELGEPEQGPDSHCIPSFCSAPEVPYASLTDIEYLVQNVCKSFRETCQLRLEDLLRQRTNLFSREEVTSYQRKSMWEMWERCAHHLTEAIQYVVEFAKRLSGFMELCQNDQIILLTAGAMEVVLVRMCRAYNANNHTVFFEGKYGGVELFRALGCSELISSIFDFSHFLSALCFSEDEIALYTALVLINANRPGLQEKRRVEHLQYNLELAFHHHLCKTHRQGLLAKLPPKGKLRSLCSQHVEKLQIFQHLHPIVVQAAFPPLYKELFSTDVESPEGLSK

Each compound was assayed against Nuclear receptor ROR-gamma (Mus musculus) (UniProt P51450) (assay: qHTS for inhibitors of ROR gamma transcriptional activity). Conditions: Drosophila S2 Gal4-RORgamma UAS-luciferase reporter, 20 h; series mostly up to 53.6 µM.
How it was run: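 ROR gamma transcriptional activity was tracked as Gal4-UAS luciferase output in stably transfected Drosophila Schneider cells, with compound added 1 hr before 700 uM copper sulfate induction and a 20 hr ambient-temperature incubation.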
Note: nearly all actives have a fitted effect of over 60% in size.
Potency is the fitted concentration of half-maximal effect.

Compound | Potency
COc1ccc(/C=C(/NC(=O)c2ccc(OC)cc2)C(=O)NCCc2c[nH]c3ccccc23)cc1 | inactive
Cn1c(C(=O)OC(C(=O)NC2CCCCC2)c2cccnc2)cc2sccc21 (centres undefined) | inactive
N#C/C(=C\C1=C(N2CCOCC2)C(=C/c2cccc([N+](=O)[O-])c2)/CC1)C(=O)Nc1ccccc1F | inactive
CCn1c2ccccc2c2nnc(SCC(=O)c3ccccc3)nc21 | active: 12.6 µM
COc1ccc(C)cc1NC(=O)CNC(c1ccccc1)c1ccc(C)cc1 (centres undefined) | inactive
Cc1cccc(C(=O)Oc2ccccc2-c2nnco2)c1 | inconclusive: 14.1 µM [inhibitor, single point]
CC(=O)c1ccc(NS(=O)(=O)c2ccc(CC(C)C)cc2)cc1 | inconclusive: 35.5 µM [inhibitor, single point]
Cn1c(=O)c2c(nc(NCc3ccccc3)n2C)n(C)c1=O | inactive
CC(C)c1nnc(NC(=O)c2ccc3ccccc3c2)s1 | inconclusive: 35.5 µM [inhibitor, single point]
CN1CCN(c2ncc3nc(-c4ccc(F)cc4)c(=O)n(Cc4cccs4)c3n2)CC1 | inconclusive: 17.8 µM [inhibitor, single point]
O=C(NCc1cccs1)c1cc(S(=O)(=O)N2CCCCC2)ccc1Cl | inconclusive: 22.4 µM [activator, single point]
CCn1c(N)c(C(=O)NCc2ccc3c(c2)OCO3)sc1=S | inactive
CC(C)n1c(C(=O)OCC(=O)NCc2ccc3c(c2)OCO3)cc2sccc21 | inconclusive: 17.8 µM [activator, partial curve]
CN1/C(=C\C(=O)CN2C(=O)NC3(CCCCCC3)C2=O)C(C)(C)c2ccccc21 | inconclusive: 35.5 µM [activator, single point]
COC(=O)CNC(=O)CN1C(=O)N(c2ccc(Cl)cc2)C(N(O)C(=O)Nc2ccc(Cl)cc2)C1(C)C (centres undefined) | inconclusive: 35.5 µM [activator, single point]
O=C(NCc1ccccc1)Nc1cccn(Cc2ccccc2F)c1=O | inactive
O=C(/C=C/c1cccc(Cl)c1)Nn1c(-c2cccs2)nc2ccccc2c1=O | inconclusive: 1.58 µM [activator, full curve]
O=S(=O)(c1ccc(Cl)c2ccccc12)N1CCCC1 | inconclusive: 14.1 µM [inhibitor, partial curve]
CCOC(=O)c1cnn(Cc2cccc(Cl)c2)c1C | inconclusive: 0.0045 µM [inhibitor, full curve, poor fit]
Cc1ccccc1C(=O)Nc1cccc(C(=O)N/N=C/c2cc(Cl)cc([N+](=O)[O-])c2O)c1 | active: 1.12 µM
COc1ccccc1CCC(=O)Oc1ccc(C#N)cc1OC | inconclusive: 11.2 µM [inhibitor, partial curve, poor fit]
S=C(NCCc1ccccc1)N/N=C/c1cccc(Cl)c1Cl | active: 22.4 µM

Compound | Potency
CSc1ncccc1C(=O)NCc1ccccc1Cl | inactive
CC(C)(C)c1ccc(Cn2cnc(-c3ccc([N+](=O)[O-])cc3)c2)cc1 | inconclusive: 1.41 µM [activator, full curve]
Cn1c(=O)c2c(ncn2CC(=O)N2CCN(c3ccccc3F)CC2)n(C)c1=O | inactive
O=C1N/C(=N\N=C\c2cccs2)SC1Cc1ccc(Cl)cc1Cl (centres undefined) | active: 0.355 µM
CC(=O)c1c(C)[nH]c(C(=O)N2CCc3ccccc3C2)c1C | inconclusive: 11.2 µM [inhibitor, single point]
CC(/C=N/NC(=O)c1cc(-c2ccc(C)o2)[nH]n1)=C\c1ccccc1 | inconclusive: 35.5 µM [inhibitor, single point]
O=C(O)CSc1c2c(nc3cc(C(=O)Nc4cccc(C(F)(F)F)c4)ccc13)CCCC2 | inconclusive: 12.6 µM [activator, single point]
Cc1cc2cc(CNC(=O)NC3CCCCC3)ccc2[nH]1 | inconclusive: 35.5 µM [activator, single point]
Cn1c(CSCc2ccc(Cl)c(Cl)c2)n[nH]c1=S | active: 5.62 µM
CN(Cc1ccccc1)C(=O)COc1ccc(N(C)S(=O)(=O)c2ccc(F)cc2)cc1 | inconclusive: 11.2 µM [activator, single point]
CCCCOc1ccc(OCCCN2CCOCC2)cc1 | inconclusive: 14.1 µM [activator, single point] and inconclusive: 35.5 µM [activator, single point]
O=C1Nc2cc(C(=O)N3CCN(c4ccccn4)CC3)ccc2S/C1=C\c1ccccc1 | inconclusive: 31.6 µM [activator, single point]
CCSc1ccc(-c2ccc(C)cc2)nn1 | inconclusive: 31.6 µM [inhibitor, single point]
CC1(C)CC(NS(=O)(=O)c2ccc(C(C)(C)C)cc2)CC(C)(C)N1 | inconclusive: 35.5 µM [inhibitor, single point]
COc1cc(NC(=O)c2ccco2)c(C(=O)OCC(=O)c2c[nH]c3ccccc23)cc1OC | inconclusive: 35.5 µM [inhibitor, single point]
O=C1OC2(CCCCC2)OC(=O)C1=CNc1nc2ccccc2s1 | inactive
C/C(CC1CC(C)OC1=O)=N\NC(N)=S (centres undefined) | active: 8.91 µM
CCOc1ccc2nc(SCC(=O)c3cccs3)sc2c1 | inconclusive: 22.4 µM [inhibitor, single point]
CC(=O)N1c2ccc(S(=O)(=O)NCC3CCC(C(=O)NCc4ccccc4)CC3)cc2CC1C (centres undefined) | inconclusive: 11.2 µM [activator, single point]
CC(C)(C)Nc1nc(NC(C)(C)C)nc(-n2ccnc2)n1 | inconclusive: 0.1 µM [activator, single point]
CCN(C(=O)Cn1c(=O)n2nc(CCn3nc(C)cc3C)nc2c2ccccc21)c1cccc(C)c1 | inconclusive: 0.0708 µM [inhibitor, full curve]
O=C(Nc1ccc(F)c(Cl)c1)Nc1csc2ccccc12 | inconclusive: 25.1 µM [inhibitor, single point]
O=c1c2ccccc2cnn1-c1ccc2ccccc2c1 | inconclusive: 14.1 µM [inhibitor, single point]

Compound | Potency
N/C(COc1ccccc1)=N\NC(=O)c1cccnc1Oc1ccccc1 | inconclusive: 35.5 µM [inhibitor, single point]
O=C(NNc1nc2c(F)cccc2s1)c1ccccc1 | inconclusive: 3.55 µM [inhibitor, full curve]
COC(=O)/C(=C1\OC(=O)C(c2ccccc2)C1=O)c1ccccc1 (centres undefined) | inconclusive: 20 µM [activator, partial curve]
O=C(c1ccco1)N1N=C(c2ccc(Cl)cc2)CC1(O)C(F)(F)F (centres undefined) | inconclusive: 20 µM [activator, single point]
COc1ccc(C2=Nc3nc(-c4ccccc4)cn3C(c3ccc(OC)cc3)C2)cc1 (centres undefined) | inconclusive: 12.6 µM [activator, single point]
CCc1c(-c2ccccc2)nc(N)c(C#N)c1-c1cccs1 | inconclusive: 20 µM [activator, single point]
Cc1ccc2c(c1)C1CN(C)CCC1N2S(=O)(=O)c1ccc(Oc2ccc([N+](=O)[O-])cc2)cc1 (centres undefined) | inconclusive: 35.5 µM [inhibitor, single point]
COCCNC(=S)Nc1cc2oc3ccccc3c2cc1OC | active: 5.62 µM
Cc1ccc(S(=O)(=O)N2CCN(C(=O)c3ccc(S(=O)(=O)N4CCCC4)cc3)CC2)cc1 | inactive
COc1cccc(-n2nnnc2SCC(=O)NC2CCCCC2)c1 | inconclusive: 1.41 µM [activator, partial curve]
O=C(C1CC(c2ccccc2O)=NO1)N1CCCC1 (centres undefined) | inconclusive: 35.5 µM [inhibitor, single point]
CC1CCN(CCCn2c(SCC(=O)Nc3ccccc3Cl)nc3ccccc3c2=O)CC1 | inactive
COC(=O)N1CCC2(CCCN(c3ccccn3)C2)CC1 | inactive
Cc1cccc(OCCNC(=S)NC(=O)c2cccnc2)c1 | active: 10 µM
COC(=O)c1cc(C(=O)OC)cc(N2C(=O)CN=C2Nc2nc(C)cc(C)n2)c1 | inconclusive: 35.5 µM [activator, single point]
O=C(Nc1nnc(SCC(=O)N2CCOCC2)s1)c1ccccc1 | inconclusive: 20 µM [inhibitor, single point]
COc1ccc(N(C(=O)Cn2nnc(-c3ccc(Cl)cc3)n2)C(C(=O)NCC2CCCO2)c2ccncc2)cc1 (centres undefined) | inconclusive: 17.8 µM [activator, single point]
Cc1ccc(SCc2nc3ccccc3n2CC(=O)Nc2ccccc2)cc1 | inconclusive: 35.5 µM [inhibitor, single point]
CCCCOC(=O)CSc1nc(N)c(C#N)c(-c2ccc(OCC)cc2)c1C#N | inconclusive: 3.16 µM [inhibitor, single point]
CC1(C)CC(=O)C=C(NCC2CCCO2)C1 (centres undefined) | inconclusive: 0.0891 µM [inhibitor, full curve, poor fit]
COc1cc(/C=N/NC(N)=S)ccc1OCC(=O)Nc1ccc(C)c(C)c1 | active: 11.2 µM
CCN(CC)c1ccc(NS(=O)(=O)c2ccc(OC)cc2)cc1 | inconclusive: 22.4 µM [activator, single point]
Cc1ccc(-c2nc3ncccc3o2)cc1NC(=O)c1cccnc1 | inconclusive: 35.5 µM [inhibitor, single point]
